# Hit rate of the full screen: of about 1,600 compounds, about 25 (2%) were called active. Inconclusive results (about 7%) are left out. Calls follow the shape of the dose curve; as a rule, active = well fitted inhibition curve with a large enough effect; inconclusive = small, poorly fitted or top-dose-only effect, or effect the other way; inactive = no such curve, though single readings can be large or run the other way. The list shows a part of the results.
# Chains of the proteins cited; added tags and fusions are not shown.
# UniProt Q01196, whole entry, looked up: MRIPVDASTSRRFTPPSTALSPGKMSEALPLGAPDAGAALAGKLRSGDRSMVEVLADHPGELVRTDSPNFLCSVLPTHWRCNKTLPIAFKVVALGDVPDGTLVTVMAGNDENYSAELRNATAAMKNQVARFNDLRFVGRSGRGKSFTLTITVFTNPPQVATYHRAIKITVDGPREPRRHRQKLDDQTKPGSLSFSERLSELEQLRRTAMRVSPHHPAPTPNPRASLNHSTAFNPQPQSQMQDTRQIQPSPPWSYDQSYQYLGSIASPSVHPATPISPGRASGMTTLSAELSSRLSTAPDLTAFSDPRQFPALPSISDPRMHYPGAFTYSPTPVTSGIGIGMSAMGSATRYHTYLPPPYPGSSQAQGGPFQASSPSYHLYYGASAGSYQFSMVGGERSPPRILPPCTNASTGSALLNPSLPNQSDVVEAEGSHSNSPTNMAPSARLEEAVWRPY
# UniProt Q13951, whole entry, looked up: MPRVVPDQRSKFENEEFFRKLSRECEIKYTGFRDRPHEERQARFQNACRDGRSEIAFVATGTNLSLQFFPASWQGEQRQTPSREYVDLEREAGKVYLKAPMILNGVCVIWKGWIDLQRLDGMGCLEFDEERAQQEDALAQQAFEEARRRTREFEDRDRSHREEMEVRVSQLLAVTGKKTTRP
# Molecular target: Runt-related transcription factor 1 (Homo sapiens) + Core-binding factor subunit beta (Homo sapiens) (UniProt Q01196+Q13951)
# Assay: qHTS Assay for Compounds Blocking the Interaction Between CBF-beta and RUNX1 for the Treatment of Acute Myeloid Leukemia: Hit Validation with Orthogonal Assay
# Settings: CBFbeta-RUNX1 binding orthogonal assay, biochemical; series mostly up to 41 µM; activity change, negative = inhibition: at the top concentration
# Outline: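 This is an orthogonal TR-FRET assay. His6-CBF-beta and biotin-RUNX1 (30 nM each) were preincubated with compound for 30 min, then Tb-anti-His antibody (0.44 ng) and streptavidin-XL665 (5 nM) were added. The signal was read after 90 min.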
# % is scaled to controls: 0 for no effect and ±100 for the full control effect; potency is read from the fitted curve at half-maximal effect.
SMILES,"activity change, negative = inhibition",Potency
c1ccc(-c2ccc(-c3ccccn3)s2)nc1,inactive: 38.8%,
Nc1nc(CCl)nc(Nc2cccc3ccccc23)n1,inactive: -21%,
COC(=O)c1scc(C)c1S(=O)(=O)Nc1ccc(C)cc1,inactive: 4.6%,
CC(C)c1nc2oc3c(N(C)CCO)ncnc3c2c2c1CCC2,inactive: -6.9%,
COc1ccc(C(=O)CSc2nnc3n2CCCN3C(=O)Nc2ccccc2)cc1,inactive: 4.14%,
CC(=O)Nc1ccc(S(=O)(=O)Nc2cc(-c3ccccc3)nn2C)cc1,inactive: 17.3%,
Cn1cc(NC(=O)Nc2ccc(C(F)(F)F)cc2)c(C(F)(F)F)n1,inactive: -3.45%,
COc1cccc(C2/C(=C(/O)c3ccccc3)C(=O)C(=O)N2Cc2ccco2)c1 (centres undefined),inactive: 4.5%,
O=C(Oc1c(-c2ccccc2)c(=O)n2c3c(cccc13)CC2)c1ccco1,inactive: 5.11%,
COC(=O)c1[nH]c2cc(OC)ccc2c1NC(=O)c1c(F)cccc1F,inactive: -0.685%,
O=C(OCC1OC(OC(=O)c2cc(O)c(O)c(OC(=O)c3cc(O)c(O)c(O)c3)c2)[C@@H](OC(=O)c2cc(O)c(O)c(OC(=O)c3cc(O)c(O)c(O)c3)c2)C(OC(=O)c2cc(O)c(O)c(OC(=O)c3cc(O)c(O)c(O)c3)c2)C1OC(=O)c1cc(O)c(O)c(OC(=O)c2cc(O)c(O)c(O)c2)c1)c1cc(O)c(O)c(OC(=O)c2cc(O)c(O)c(O)c2)c1 (some centres undefined),,active: 10 µM
c1cnc2ccc3ncccc3c2c1,inactive: -18.1%,
S=c1[nH]c2cc3ccccc3cc2[nH]1,inactive: 22.5%,
Cn1cc(Br)c(NC(=O)/C=C/C(=O)O)n1,inactive: -1.84%,
O=c1nc(SCc2ccc(Cl)cc2)nc(-c2ccccc2)[nH]1,inactive: -4.14%,
C=CCSC(CC)(CC)C(N)=O,inactive: -3.22%,
O=C(CCCCl)NC(=S)Nc1ccc(N2CCOCC2)cc1,inactive: 0.404%,
CC(C)(C)c1ccc(NC(=S)NCc2cccnc2)cc1,inactive: -6.7%,
S=C1SCN(Cc2ccco2)CN1Cc1ccco1,inactive: 7.9%,
NC(=O)c1cccnc1Oc1ccc(Cl)cc1,inactive: -4.34%,
COc1ccc([N+](=O)[O-])c(S(=O)(=O)c2ccccc2)n1,inactive: 40.8%,
C/C(=N\Nc1cccc(Cl)c1)C1(C)N(O)C(C)(C)C(c2ccco2)=[N+]1[O-] (centres undefined),inactive: 18.1%,
Cc1cnc(NS(=O)(=O)c2ccc(Cl)cc2)c(Br)c1,inactive: -13.8%,
CCOC(=O)C1=C(C)N(CC(C)C)C(=O)/C1=C\c1cccs1,inactive: 14.3%,
O=c1c2cc(-c3ccccc3)sc2nc2n1N=C(c1ccccc1)CS2,inactive: -8.36%,

# 6 entries from above, bar-delimited.
SMILES | activity change, negative = inhibition | Potency
Nc1nc(CCl)nc(Nc2cccc3ccccc23)n1 | inactive: -21% | 
COC(=O)c1scc(C)c1S(=O)(=O)Nc1ccc(C)cc1 | inactive: 4.6% | 
CC(C)c1nc2oc3c(N(C)CCO)ncnc3c2c2c1CCC2 | inactive: -6.9% | 
COc1ccc(C(=O)CSc2nnc3n2CCCN3C(=O)Nc2ccccc2)cc1 | inactive: 4.14% | 
CC(=O)Nc1ccc(S(=O)(=O)Nc2cc(-c3ccccc3)nn2C)cc1 | inactive: 17.3% | 
Cn1cc(NC(=O)Nc2ccc(C(F)(F)F)cc2)c(C(F)(F)F)n1 | inactive: -3.45% | 

# Remaining list, next part

SMILES,"activity change, negative = inhibition",Potency
Cn1c(=O)c2cc3ccc(Cl)cc3nc2n(C)c1=O,inactive: 20.1%,
CCn1c(SCC(=O)Nc2c(C#N)cnn2-c2ccccc2)nnc1-c1cccs1,inactive: 6.31%,
Cc1ccc(C#CC(C)(O)C(C)(C)C)cn1 (centres undefined),inactive: -7.33%,
CC(C)(C)c1ccc(CCC2OCC(CN3CCOCC3)O2)cc1 (centres undefined),inactive: -4.47%,
Cc1nn(C)c(C)c1NC(=O)/C(C#N)=C\N(C)C,inactive: -5.6%,
COc1cc(-c2noc(C)n2)cc(OC)c1OC,inactive: 1.19%,
O=C(O)c1ccc(S(=O)(=O)Nc2cccc(CP(=O)(c3ccccc3)c3ccccc3)c2)cc1,inactive: -7.66%,
COC(=O)C1=C(C)Nc2c(c(=O)n(C)c(=O)n2C)C1c1cccc(O)c1 (centres undefined),inactive: -5.82%,
COc1ccc(-c2nc(-c3cccnc3)no2)cc1OC,inactive: 5.75%,
CC(C)N1CN(c2ccccc2)C(=S)N(c2ccccc2)C1,inactive: 6.57%,
Cc1ccc(CNc2nc(N)c([N+](=O)[O-])c(NCCO)n2)cc1,inactive: 28.8%,
N#CCc1cnc2ccccc2n1,inactive: 23.1%,
Clc1ccc(-c2ccccc2)nn1,inactive: 11.3%,
CCN(CC)c1ncc(C#N)c(N)n1,inactive: -7.89%,
CCN(CC)S(=O)(=O)c1cccc(C(=O)N/N=C2\CCCC(=O)C2)c1,inactive: 19.9%,
CNC(=O)n1cc(C)c(-c2cccs2)n1,inactive: -2.9%,
COC(=O)c1ccc(S(=O)(=O)NCc2ccco2)n1C,inactive: 0.869%,
CC1(C)Cc2c(c(=S)nc(-c3ccccc3)n2Cc2cccnc2)CO1,inactive: 18.4%,
Cc1ccc(C[n+]2cc(-c3ccc(Cl)cc3)n3c2CCC3)cc1,inactive: 16.3%,
CCOC(=O)NC1=NCC(C)S1 (centres undefined),inactive: -3.45%,
Cc1ccc(Cc2cc(C)n[nH]c2=O)cc1,inactive: -6.34%,
Cc1ccccc1-c1noc(-c2ccccc2C(=O)NCC2CCCO2)n1 (centres undefined),inactive: -11.2%,
Cc1cc(C)nc(N2N=C(C(F)(F)F)CC2=O)n1,inactive: -12.4%,
Cc1n[nH]c(C)c1CCC(=O)N/N=C/c1cccs1,inactive: 15.4%,
Cc1cc(N2CCN(C(=O)c3ccco3)CC2)c2ccccc2n1,inactive: -3.52%,

SMILES,"activity change, negative = inhibition",Potency
CCOC(=O)c1c(NC(=S)NC)sc2c1CCCC2,inactive: 1.57%,
COCc1cc(=O)n2[nH]c(-c3cccs3)cc2n1,inactive: 3.23%,
COc1ccc(Oc2nc(-c3ccccn3)ncc2OC)cc1,inactive: -6.94% [at 82.4 µM],
Nc1nc(Nc2cccc(Cl)c2)n[nH]1,inactive: 9.81%,
Cc1ccc(OCC(=O)N(Cc2ccc(N(C)C)cc2)C2CCS(=O)(=O)C2)cc1C (centres undefined),inactive: 10.2%,
COCCNc1c2c(nc3c(-c4ccccc4)c(C)nn13)CCC2,inactive: 1.65%,
O=C(NC1CCSC1)c1cccc(Cl)c1 (centres undefined),inactive: 5.27%,
CCC(C)(C)C1CCc2[nH]nc(C(=O)N/N=C(\C)c3ccco3)c2C1 (centres undefined),inactive: 3.02%,
N/C(CN1CCSCC1)=N\OCc1c(F)cccc1Cl,inactive: 10.8%,
COc1ccc2nc3cc(Cl)ccc3c(C#N)c2c1,inactive: 13.3%,
CC(C)CC(=O)NC(=S)Nc1ccccc1N1CCCC1,inactive: 22.8%,
N#Cc1ccc(-c2cccnc2)nc1SCC(=O)c1ccccc1,inactive: 29.9%,
Clc1nc(Oc2ccccc2)nc(-c2cn(-c3ccccc3)c3ccccc23)n1,inactive: -9%,
COc1ccc(CN2CCOC2=O)cc1OC,inactive: -2.74%,
Cc1cc(NC(=O)CN2CCOCC2)n(-c2ccccc2)n1,inactive: 4.36%,
Cc1ccc(SC2=C(Sc3ccc(C)cc3)C(=O)c3ccccc3C2=O)cc1,inactive: 26.3%,
O=C(CN1CCCc2ccccc21)N1CCc2ccccc21,inactive: 18.9%,
CC(C)(C)c1ccc(/C=N/N2CCN(c3ccccn3)CC2)cc1,inactive: 1.59%,
c1ccc(-c2ccc(-c3nccc4ccccc34)[nH]2)cc1,inactive: 18.1%,
O=C(O)CCC1(c2ccccc2)NC(=O)NC1=O (centres undefined),inactive: -2.89%,
COC(=O)CC1C(=O)NCCN1C(=S)Nc1ccc(F)cc1 (centres undefined),inactive: -9.22%,
Cc1cccc(-c2n[nH]c(=S)n2/N=C/c2ccco2)c1,inactive: -0.0367%,
COc1ccccc1NC(=S)NCC1CCC(CNC(=S)Nc2ccccc2OC)CC1 (centres undefined),inactive: 1.97%,
CC(C)CCNc1nc(N)c([N+](=O)[O-])c(NCCO)n1,inactive: 18%,

# Reference: PubChem BioAssay AID504375 (National Center for Advancing Translational Sciences (NCATS), 2011)
